According to patent US20150185222A1 (TORAY INDUSTRIES, published 2015):

Molecular target: cat CAPRIN-1 in cat breast cancer tissues (cat)
Test: immunohistochemical staining of frozen cat breast cancer tissue sections, 10 µg/ml antibody

- binding: binds
B1: mouse anti-human CAPRIN-1 monoclonal antibody #14 (antibody, V domains shown)
VH: GGGLVQPGGSMRLSCVASGFTFSNSWFNWVRQSPEKGLEWVAEIRLTSDNYAIYYAESVKGRFTISRDDSKSSVYLQMNNLRAEDTGIYYCTRPETARATFAYWGQGTTVTVSS
VL: DVLMTQTPLSLPVSLGDQASISCRSSQSIVHSNGNTYLEWYLQKPGQSPKVLIYKVFNRFSGVPDRFSGSGSGTDFTLKISRVEAEDLGVYYCFQGSHVPRTFGGGTKLNQTG

Results are given in words; binding and its absence hold for the method and conditions named. A result given as binding can be weak or reduced; the word gives no strength.
